One substance from publication doi:10.1101/2025.10.17.683079 can be followed below.

Amino acid sequences for entries named in this document (tags omitted).
UniProt Q60644: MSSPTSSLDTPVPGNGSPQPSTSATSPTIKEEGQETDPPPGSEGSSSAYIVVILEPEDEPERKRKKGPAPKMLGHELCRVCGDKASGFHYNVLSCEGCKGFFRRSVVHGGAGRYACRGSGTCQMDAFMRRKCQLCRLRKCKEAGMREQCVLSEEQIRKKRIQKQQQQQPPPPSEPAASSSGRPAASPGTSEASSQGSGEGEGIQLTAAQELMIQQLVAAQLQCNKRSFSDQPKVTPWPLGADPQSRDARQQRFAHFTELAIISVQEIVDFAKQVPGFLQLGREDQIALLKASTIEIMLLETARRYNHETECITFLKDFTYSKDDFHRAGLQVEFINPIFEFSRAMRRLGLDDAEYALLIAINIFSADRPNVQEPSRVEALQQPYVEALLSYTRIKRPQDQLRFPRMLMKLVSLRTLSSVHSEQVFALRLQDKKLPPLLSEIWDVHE

The target in this experiment is T1, HDAC11 (mouse (endogenous in hippocampus)) (UniProt Q91WA3).
T1 sequence: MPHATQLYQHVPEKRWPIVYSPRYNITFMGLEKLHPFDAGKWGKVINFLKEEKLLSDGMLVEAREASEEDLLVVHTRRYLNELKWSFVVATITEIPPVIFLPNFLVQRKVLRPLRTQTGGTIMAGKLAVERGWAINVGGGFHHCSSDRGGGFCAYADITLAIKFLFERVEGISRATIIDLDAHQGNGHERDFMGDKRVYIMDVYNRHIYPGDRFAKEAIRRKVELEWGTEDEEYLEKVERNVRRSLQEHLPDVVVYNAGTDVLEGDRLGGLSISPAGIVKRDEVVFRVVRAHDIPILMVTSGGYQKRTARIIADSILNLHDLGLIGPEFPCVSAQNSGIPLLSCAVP
Briefly: affinity purification with mass spectrometry.

These are yes or no findings as the source states them, for the method shown. In cells and extracts the contact can be indirect. Here binding means that the protein was enriched with, or labelled near, the bait; the list need not be complete.

On to “NR1H2 (also known as LXRβ) (from UniProt Q60644 1-446)”, for which the binding entry is “binds”.
